Values from PubChem BioAssay AID652243 (Drosophila RNAi Screening Center, 2013)

Screen: 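Fly genes required for human androgen receptor driven transcription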 (primary screen)
Cells: Drosophila S2R+ cells
Reagents: long dsRNA against Drosophila genes
Duration: 72 h (48 h, then 24 h hormone)
Conditions: synthetic androgen R1881 at 10 nM for 24 h
Measurement: 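Per-well raw luminescence of the androgen-driven firefly reporter and of the Renilla control, two replicates each, without normalisation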
Direction: firefly reporter light: higher = more light from androgen-responsive reporter; Renilla control light: higher = more constitutive control signal (cell number, transfection)
Rule for the call: 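Hit when the log firefly-to-Renilla ratio dropped or increased by a fixed fold versus the mean of GFP or LacZ controls across duplicate plates; lowering cut given as 1.5 and as 3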
Calls: active = hit: reporter lowered or raised; inactive = no hit
In all, the deposit lists about 24,000 reagents; below is an unselected part of those with a known target gene and a result. In the full data, 246 (1%) got an active call. 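Plates not normalised; calls are printed but the firefly/Renilla ratio behind them is not deposited; fold cut for lowering reported inconsistently.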 The raw values are shown without normalisation. A plus sign joins genes that one reagent is predicted to hit. The record does not give: the amount of reagent.

Against CG12699 [DRSC06162], the values are firefly reporter light, replicate 1 = 8.16e5; firefly reporter light, replicate 2 = 8.03e5; Renilla control light, replicate 1 = 1.89e6; Renilla control light, replicate 2 = 1.51e6; inactive.
Depletion of CG12699 [DRSC25679] gave: firefly reporter light, replicate 1 = 1.44e6; firefly reporter light, replicate 2 = 1.08e6; Renilla control light, replicate 1 = 1.31e6; Renilla control light, replicate 2 = 9.22e5; inactive.
Depletion of asRNA:CR31144 + RpL3 [DRSC16834] gave: firefly reporter light, replicate 1 = 92938; firefly reporter light, replicate 2 = 1.85e5; Renilla control light, replicate 1 = 1.52e6; Renilla control light, replicate 2 = 1.66e6; inactive.
CG34038 [DRSC38892] gave firefly reporter light, replicate 1 = 9.39e5; firefly reporter light, replicate 2 = 6.03e5; Renilla control light, replicate 1 = 2.03e6; Renilla control light, replicate 2 = 1.20e6; inactive.

In a second layout: results already given
CG12699 [DRSC06162]
- firefly reporter light, replicate 1: 8.16e5
- firefly reporter light, replicate 2: 8.03e5
- Renilla control light, replicate 1: 1.89e6
- Renilla control light, replicate 2: 1.51e6
- Outcome: inactive

CG12699 [DRSC25679]
- firefly reporter light, replicate 1: 1.44e6
- firefly reporter light, replicate 2: 1.08e6
- Renilla control light, replicate 1: 1.31e6
- Renilla control light, replicate 2: 9.22e5
- Outcome: inactive

Continued:
With knock-down of mthl8 [DRSC08211], the record shows firefly reporter light, replicate 1 = 7.49e5; firefly reporter light, replicate 2 = 7.64e5; Renilla control light, replicate 1 = 1.62e6; Renilla control light, replicate 2 = 1.38e6; inactive.
For mthl8 [DRSC08311], the values are firefly reporter light, replicate 1 = 82330; firefly reporter light, replicate 2 = 94186; Renilla control light, replicate 1 = 1.74e6; Renilla control light, replicate 2 = 1.75e6; inactive.
Silencing of CG9101 [DRSC20152] gave: firefly reporter light, replicate 1 = 2.12e5; firefly reporter light, replicate 2 = 2.27e5; Renilla control light, replicate 1 = 1.77e6; Renilla control light, replicate 2 = 1.54e6; inactive.
After knock-down of CG9101 [DRSC27575] the results were firefly reporter light, replicate 1 = 4.68e5; firefly reporter light, replicate 2 = 3.92e5; Renilla control light, replicate 1 = 8.57e5; Renilla control light, replicate 2 = 5.82e5; inactive.
Against Rpt4 [DRSC18713], the values are firefly reporter light, replicate 1 = 1.45e5; firefly reporter light, replicate 2 = 1.38e5; Renilla control light, replicate 1 = 1.80e6; Renilla control light, replicate 2 = 1.84e6; inactive.
After knock-down of CG32695 [DRSC17975], the screen gave firefly reporter light, replicate 1 = 3.65e5; firefly reporter light, replicate 2 = 4.19e5; Renilla control light, replicate 1 = 3.03e6; Renilla control light, replicate 2 = 2.60e6; inactive.
mEFTs [DRSC02953] gave firefly reporter light, replicate 1 = 8.62e5; firefly reporter light, replicate 2 = 9.27e5; Renilla control light, replicate 1 = 1.69e6; Renilla control light, replicate 2 = 1.54e6; inactive.
For mEFTs [DRSC30019] the deposit lists firefly reporter light, replicate 1 = 5.94e5; firefly reporter light, replicate 2 = 3.31e5; Renilla control light, replicate 1 = 1.47e6; Renilla control light, replicate 2 = 1.19e6; inactive.
